Test results: publication doi:10.1101/2022.08.09.503292

Experiments:
[1] = system: BRCA1-f-BARD1 221 W146Bpa; test: competition with a labelled probe; conditions: vs NCP185 Bpa crosslink
[2] = system: BRCA1-f-BARD1 221 A195Bpa; test: competition with a labelled probe; conditions: vs NCP185 Bpa crosslink

Sequence	binding result [1]	binding result [2]	binding result ([1]; less effective than bubble-DNA)	binding result ([2]; less effective than bubble-DNA)
CCTACGACGCCTGGCTCTTTCCCGCAATTGTGTACC / GGTACACAATTGCGCTGGTACCCCAGGCGTCGTAGG [36-mer bubble-DNA]	binds	binds	–	–
CCTACGACGCCTGGGGTACCAGCGCAATTGTGTACC (double strand) [36-mer dsDNA]	–	–	binds more weakly	binds more weakly

For at least one entry, the source does not settle the construct or the ends of the probe. A weaker result is weaker than the reference pair of the same experiment.
